# Data reported in the supplement of paper PMC11348887.
# Structures can show the parent of a compound that is named as a salt. The list shows a part of the results. Most values lie at the level of the controls, where differences are scatter.
# Test system: hPSC-derived cortical neurons (WA09)
# Assay: KCl-induced FOS+/EGR-1+ double-positive nuclei fraction z-score (KCl minus unstimulated); higher = stronger activity-induced IEG response
# Conditions: 5 µM; treatment: days 7-14 after plating, readout day 21
row,Structure (SMILES),KCl-induced FOS+/EGR-1+ double-positive nuclei fraction z-score
1,Cc1cnc(Nc2ccc(N3CCN(C)CC3)cc2)nc1Nc1cccc(S(=O)(=O)NC(C)(C)C)c1,-0.663
2,COc1cc2ncnc(Nc3cccc(Cl)c3)c2cc1OC [AG-1478 (Tyrphostin AG-1478)],1.52
3,Cn1cc(CNCC2CCN(c3ncc(C(=O)NO)cn3)CC2)c2ccccc21,-0.637
4,Nc1nc(CC(=O)Nc2ccc(CCNC[C@H](O)c3ccccc3)cc2)cs1 [Mirabegron],-0.468
5,C[C@H](CCC(=O)O)[C@H]1CC[C@H]2[C@@H]3[C@@H](O)C[C@@H]4C[C@H](O)CC[C@]4(C)[C@H]3CC[C@]12C [Ursodiol],-0.36
6,O=C(NC(NC(=S)Nc1ccc(F)c([N+](=O)[O-])c1)C(Cl)(Cl)Cl)C(c1ccccc1)c1ccccc1 (stereo not drawn),0.00891
7,CC(=O)N[C@@H](CCC(N)=O)C(=O)O [Aceglutamide],1.28
8,COc1cc2c(cc1OC)C(=O)C(CC1CCN(Cc3ccccc3)CC1)C2 (stereo not drawn) [Donepezil HCl],-0.733
9,CCCC(=O)OCOC(=O)C1=C(C)NC(C)=C(C(=O)OC)C1c1cccc(Cl)c1Cl (stereo not drawn) [Clevidipine Butyrate],-0.575
10,Nc1ccc(C(=O)NCC(=O)O)cc1 [4-Aminohippuric Acid],0.69
11,C[C@H](NC(=O)C(=O)Nc1ccccc1C(C)(C)C)C(=O)N[C@@H](CC(=O)O)C(=O)COc1c(F)c(F)cc(F)c1F [Emricasan],0.844
12,O=C(Nc1ccccc1)N1CCN(c2nc(-c3ccccc3)ns2)CC1,0.674
13,NC(=O)[C@@H]1CCCN1C(=O)[C@H](Cc1c[nH]cn1)NC(=O)[C@@H]1CCC(=O)N1 [Protirelin],-0.189
14,Cc1ccc2nc(NCCN)c3ncc(C)n3c2c1,0.808
15,CN1CCN(c2ccc(OC(F)(F)F)c(Nc3ncc4c(n3)-c3c(c(C(N)=O)nn3CCO)CC4)c2)CC1,-0.316
16,COc1ccc(-c2ccc3cc(C(=O)O)ccc3c2)cc1C12CC3CC(CC(C3)C1)C2 [Adapalene],1.21
17,CC1(C)S[C@@H]2[C@H](NC(=O)C(C(=O)O)c3ccccc3)C(=O)N2[C@H]1C(=O)O (stereo partly drawn) [Carbenicillin disodium],-0.736

row,Structure (SMILES),KCl-induced FOS+/EGR-1+ double-positive nuclei fraction z-score
1,Cc1c[nH]c(/C=C2\C(=O)Nc3ccccc32)c1CCC(=O)O,0.865
2,NS(=O)(=O)c1cc2c(cc1Cl)NCNS2(=O)=O [Hydrochlorothiazide],-1.23
3,Cc1nc(C)c(Cl)c(O)c1Cl [Clopidol],2.67
4,C=C1C(=O)O[C@@H]2/C=C(\C)CC/C=C(\C)CC[C@@H]12 [Costunolide],-1.51
5,C[N+]1(C)[C@@H]2C[C@@H](OC(=O)C(O)(c3cccs3)c3cccs3)C[C@H]1[C@@H]1O[C@@H]12 [Tiotropium Bromide hydrate],0.131
6,COc1cc(NC(=O)c2ccccn2)ccc1Cl,1.63
7,Nc1[nH]cnc2ncnc1-2 [Adenine HCl],0.693
8,COc1cc(C(=O)O)ccc1NC(=O)[C@@H]1N[C@@H](CC(C)(C)C)[C@](C#N)(c2ccc(Cl)cc2F)[C@H]1c1cccc(Cl)c1F [Idasanutlin (RG-7388)],0.574
9,CN1CCc2c(c3ccccc3n2Cc2ccc(C(=O)NO)cc2)C1 [Tubastatin A],0.127
10,O=C(O)CCC(=O)c1ccc(-c2ccccc2)cc1 [Fenbufen],0.196
11,C=CCc1ccc(O)c(-c2cc(CC=C)ccc2O)c1 [Magnolol],0.268
12,CC(C)C[C@H](NC(=O)CNC(=O)c1cc(Cl)ccc1Cl)B1OC(=O)C(CC(=O)O)(CC(=O)O)O1,-1.44
13,CC(C)(C)[N+]([O-])=Cc1ccc(S(=O)(=O)O)cc1S(=O)(=O)O,0.469
14,CNC(=O)c1ccccc1Nc1cc(Nc2ccc(N3CCOCC3)cc2OC)ncc1C(F)(F)F,-1.49
15,Nc1ccc(S(N)(=O)=O)cc1 [Sulfanilamide],-0.475
16,CC(=O)OCOC(=O)CN(CC(=O)OCOC(C)=O)c1ccccc1OCCOc1ccccc1N(CC(=O)OCOC(C)=O)CC(=O)OCOC(C)=O,0.488

# 3 entries out of the list, arranged by SMILES length, high to low.
row,Structure (SMILES),KCl-induced FOS+/EGR-1+ double-positive nuclei fraction z-score
5,C[N+]1(C)[C@@H]2C[C@@H](OC(=O)C(O)(c3cccs3)c3cccs3)C[C@H]1[C@@H]1O[C@@H]12 [Tiotropium Bromide hydrate],0.131
11,C=CCc1ccc(O)c(-c2cc(CC=C)ccc2O)c1 [Magnolol],0.268
7,Nc1[nH]cnc2ncnc1-2 [Adenine HCl],0.693
